Source: patent US20250059233A1, “USE OF THERAPEUTIC PEPTIDES” (Viage Therapeutics Inc., priority 2021, published 2025)
At least one peptide structure holds a part that was inferred or is arguable (an end, a ring closure or a residue). No end group written: not given here.

The chains behind the UniProt entries cited, without tags or fusion partners.
UniProt P37288, whole entry, species assumed: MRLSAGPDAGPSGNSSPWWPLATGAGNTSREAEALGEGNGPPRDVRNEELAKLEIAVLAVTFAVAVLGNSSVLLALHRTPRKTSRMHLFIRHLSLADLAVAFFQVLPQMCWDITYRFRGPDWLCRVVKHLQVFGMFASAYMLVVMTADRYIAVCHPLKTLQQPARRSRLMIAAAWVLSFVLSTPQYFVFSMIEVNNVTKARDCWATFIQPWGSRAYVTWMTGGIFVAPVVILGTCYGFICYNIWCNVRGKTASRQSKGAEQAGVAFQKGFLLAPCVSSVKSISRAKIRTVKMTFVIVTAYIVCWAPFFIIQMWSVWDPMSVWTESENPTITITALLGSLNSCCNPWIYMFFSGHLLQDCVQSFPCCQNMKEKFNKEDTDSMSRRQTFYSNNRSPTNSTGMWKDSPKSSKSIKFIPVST

Legend:
Male C57Bl/6 mice = assay: Brain microdialysis study: neurotransmitter levels after oral dosing; assay type: in vivo; conditions: single 3 mg/kg oral dose; samples before and every 30 minutes for four hours after; HPLC-MS
TNF-α = assay: LPS-induced inflammation: plasma TNF-α by ELISA; assay type: in vivo, Mice; conditions: LPS 10 μg/kg i.p.; peptide 0.3, 3 or 10 mg/kg p.o. twice, 2.5 and 3.5 hours after LPS; blood 4 hours after LPS
Male ICR mice = assay: Step-down inhibitory avoidance test, scopolamine-induced memory impairment; assay type: in vivo; conditions: scopolamine 2 mg/kg i.p., vs model group, P<0.05
Procedure: Male ICR mice, aged 4-5 weeks were used in the study.
The study was performed in step-down inhibitory avoidance equipment with dimensions 12 cm×2 cm×18 cm in each chamber (Model: YLS-3T, Shandong Yiyan Technology Co., LTD., China). The bottom of each chamber was covered with a copper grid that can be electrified. A rubber platform was placed in the right corner of each chamber.
Male ICR mice in each group were treated by oral gavage once a day for 21 days with the vehicle, Donepezil Hydrochloride (1.5 mg/kg), and the peptide […] (SEQ ID NO:2) (0.3, 10 mg/kg), respectively. Two hours after the last administration, scopolamine hydrobromide (2 mg/kg) was injected intraperitoneally to induce memory impairment.
Fifty male ICR mice were divided into 5 groups according to the average of body weight, 10 mice in each group, as detailed in Table 1. […]
Evaluation period: 24 h after the training period, the mice were placed on the rubber platform and evaluated for 5 minutes. The latency of the first jump from the platform to the copper grid was observed and counted, and the latency in seconds was analyzed to evaluate memory improvement.
All results were given as mean±SEM, and the data differences between groups were analyzed by t-test for the paired comparisons using the GraphPad Prism 8 statistical package (GraphPad Software Inc., San Diego, CA, USA). […]

[1] = test system: Trp channels (TRPA1, TRPV1), nutrient and metabolite sensing GPCRs (FFAR1, FFAR2, FFAR3, FFAR4, GPR119, CaS, GPR142, GPBAR1 and LPA5) and taste receptors; assay: Initial screen of Trp channels, nutrient and metabolite sensing GPCRs and taste receptors; assay type: cell-based
[2] = test system: all cell surface-expressed receptors (˜6K receptors); assay: Full genome-wide binding-based screen
168 GPCRs = assay: Large screen of 168 GPCRs for agonist or antagonist activity; assay type: cell-based; conditions: agonist or antagonist activity at 168 GPCRs
AVPR1A = AVPR1A (Homo sapiens, UniProt P37288); assay: More universal and more sensitive GPCR screen (in vitro screens); assay type: cell-based; conditions: candidate receptor AVPR1A; conclusion from in vitro screens and TST
AVPR2 = AVPR2 (Homo sapiens, UniProt P30518); assay: as above; assay type: cell-based; conditions: candidate receptor AVPR2
GNRHR = biological target: T1, GNRHR (Homo sapiens, UniProt P30968); assay: as above; assay type: cell-based
T1 sequence (P30968 1-328): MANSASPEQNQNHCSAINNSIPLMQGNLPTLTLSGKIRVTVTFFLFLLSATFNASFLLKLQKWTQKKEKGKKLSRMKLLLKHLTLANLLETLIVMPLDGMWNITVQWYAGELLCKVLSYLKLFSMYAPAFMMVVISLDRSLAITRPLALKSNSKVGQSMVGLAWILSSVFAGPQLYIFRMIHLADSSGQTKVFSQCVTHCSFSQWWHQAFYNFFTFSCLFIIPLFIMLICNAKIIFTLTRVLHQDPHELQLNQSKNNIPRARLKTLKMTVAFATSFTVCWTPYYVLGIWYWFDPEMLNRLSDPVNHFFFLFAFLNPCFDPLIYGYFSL

healthy subjects [3] = assay: Phase 1a/1b study: Patient Health Questionnaire-9 (PHQ-9); assay type: in vivo, human; conditions: cohort MAD3, 540 mg/day oral for seven days; vs placebo; preliminary data
healthy subjects [4] = assay: Phase 1a/1b study: CogState cognitive assessments; assay type: in vivo, human; conditions: vs placebo, preliminary data
[5] = cohorts MAD1-MAD3, after seven days of treatment

LSSTQAQQSY
all evaluated neurotransmitters in striatum (Male C57Bl/6 mice): No significant changes
histamine in the prefrontal cortex (dialysate) (Male C57Bl/6 mice): Statistically significant changes
norepinephrine in the prefrontal cortex (dialysate) (Male C57Bl/6 mice): Statistically significant changes
other neurotransmitters in the prefrontal cortex (dopamine, serotonin, glutamate, GABA, glycine) (Male C57Bl/6 mice): No significant changes
plasma levels of TNF-α after LPS challenge (TNF-α): trend of TNF-α suppression
latency of the first jump from the platform (step-down) (Male ICR mice; 0.3 mg/kg oral gavage once a day for 21 days): extended their latencies
latency of the first jump from the platform (step-down) (Male ICR mice; 10 mg/kg oral gavage once a day for 21 days): extended their latencies
outcome of initial screen [1]: negative or provided non-reproducible hits
outcome of initial screen [2]: negative or provided non-reproducible hits
outcome of initial screen (168 GPCRs): negative or provided non-reproducible hits
Likely target (AVPR1A): Yes
Activated by peptide in in vitro screens? (AVPR2): Yes
Likely target (AVPR2; conclusion from in vitro screens and TST): No
identified in the GPCR screen (GNRHR): possible targets
PHQ-9: measures of mood, depression, sleep, awareness, and/or alertness (questions 1-3 and 6) (healthy subjects [3]): improvement
CogState Detection Test (DET), psychomotor function (healthy subjects [4]; cohorts MAD1-MAD3 (60, 180, 540 mg/day oral)): did not have a significant impact
CogState Groton Maze Learning Test (GMLT), executive function (healthy subjects [4]; [5]): positive trend
CogState Identification Test (IDN), attention (healthy subjects [4]; [5]): positive trend
CogState One Card Learning Test (OCL), visual learning (healthy subjects [4]; [5]): positive trend
